Test results reported in paper PMC7360120.

Target: GST-ELKS1αB 697-992
Test: pull-down; GST-ELKS fragments on glutathione-Sepharose with soluble purified His-Rab6 point mutants (1.2 μM); 150 mM NaCl, 20 mM HEPES pH 7.4, 4 mM EGTA, 1 mM DTT, 1% Triton X-100, 0.1 mg/ml BSA, 5 mM Mg2+, 1 h at 4°C; T7 western blot; both purified

B1: His-Rab6A Q72L (protein, UniProt P35279 1-208)
chain: MSAGGDFGNPLRKFKLVFLGEQSVGKTSLITRFMYDSFDNTYQATIGIDFLSKTMYLEDRTVRLQLWDTAGLERFRSLIPSYIRDSTVAVVVYDITNVNSFQQTTKWIDDVRTERGSDVIIMLVGNKTDLADKRQVSIEEGERKAKELNVMFIETSAKAGYNVKQLFRRVAAALPGMESTQDRSREDMIDIKLEKPQEQPVNEGGCSC
- binding: binds

These are yes or no findings as the source states them, for the method shown. A result given as binding can be weak or reduced; the word gives no strength. Sequences can lack the tags named with a protein.
